Data as given in patent US11203602B2 (OnKure, Inc., priority 2016, dated 2021).

Assay: general procedure: solution-phase peptide synthesis; HATU/DIPEA
Details: late stage modification step
[1] = hydrochloride, benzenesulfonate, oxalate

Substance | step yield [1] [% yield] | other results
(R)—S-((E)-4-((7S,10S)-7-isopropyl-4,4-dimethyl-2,5,8,12-tetraoxo-9-oxa-16-thia-3,6,13,18-tetraazabicyclo[13.2.1]octadeca-1(17),15(18)-dien-10-yl)but-3-en-1-yl) 2-aminopropanethioate Oxalate |  | step yield (oxalate): 55% yield
S-((E)-4-((7S,10S)-7-isopropyl-4,4-dimethyl-2,5,8,12-tetraoxo-9-oxa-16-thia-3,6,13,18-tetraazabicyclo[13.2.1]octadeca-1(17),15(18)-dien-10-yl)but-3-en-1-yl) 2-(dimethylamino)ethanethioate | 29 | 
(S)—S-((E)-4-((7S,10S)-7-isopropyl-4,4-dimethyl-2,5,8,12-tetraoxo-9-oxa-16-thia-3,6,13,18-tetraazabicyclo[13.2.1]octadeca-1(17),15(18)-dien-10-yl)but-3-en-1-yl) 2-aminopropanethioate Oxalate |  | step yield (oxalate): 74% yield
(S)—S-((E)-4-((7S,10S)-7-isopropyl-4,4-dimethyl-2,5,8,12-tetraoxo-9-oxa-16-thia-3,6,13,18-tetraazabicyclo[13.2.1]octadeca-1(17),15(18)-dien-10-yl)but-3-en-1-yl) 2-((tert-butoxycarbonyl)amino)propanethioate | 51 | 
(S)—S-((E)-4-((7S,10S)-7-isopropyl-4,4-dimethyl-2,5,8,12-tetraoxo-9-oxa-16-thia-3,6,13,18-tetraazabicyclo[13.2.1]octadeca-1(17),15(18)-dien-10-yl)but-3-en-1-yl) 2-((tert-butoxycarbonyl)amino)-3-methylbutanethioate | 89 | 
(S)—S-((E)-4-((7S,10S)-7-isopropyl-4,4-dimethyl-2,5,8,12-tetraoxo-9-oxa-16-thia-3,6,13,18-tetraazabicyclo[13.2.1]octadeca-1(17),15(18)-dien-10-yl)but-3-en-1-yl) 2-amino-3-methylbutanethioate Hydrochloride |  | step yield (hydrochloride): 100% yield
S-((E)-4-((7S,10S,Z)-7-isopropyl-4,4-dimethyl-2,5,8,12-tetraoxo-9-oxa-3,6,13-triaza-1(4,2)-thiazolacyclotetradecaphane-10-yl)but-3-en-1-yl) pyridine-3-carbothioate | 32 | 
(S)—S-((E)-4-((7S,10S)-7-isopropyl-4,4-dimethyl-2,5,8,12-tetraoxo-9-oxa-16-thia-3,6,13,18-tetraazabicyclo[13.2.1]octadeca-1(17),15(18)-dien-10-yl)but-3-en-1-yl) 2-amino-3-methylbutanethioate Benzenesulfonate |  | purity (crude or final not stated) (benzenesulfonate): 98% purity; step yield (benzenesulfonate): 90% yield
(R)—S-((E)-4-((7S,10S)-7-isopropyl-4,4-dimethyl-2,5,8,12-tetraoxo-9-oxa-16-thia-3,6,13,18-tetraazabicyclo[13.2.1]octadeca-1(17),15(18)-dien-10-yl)but-3-en-1-yl) 2-amino-3-methylbutanethioate Hydrochloride |  | step yield (hydrochloride): 26% yield
5-(((E)-4-((7S,10S,Z)-7-isopropyl-4,4-dimethyl-2,5,8,12-tetraoxo-9-oxa-3,6,13-triaza-1(4,2)-thiazolacyclotetradecaphane-10-yl)but-3-en-1-yl)thio)-5-oxopentanoic Acid | 41 | 
(R)—S-((E)-4-((7S,10S)-7-isopropyl-4,4-dimethyl-2,5,8,12-tetraoxo-9-oxa-16-thia-3,6,13,18-tetraazabicyclo[13.2.1]octadeca-1(17),15(18)-dien-10-yl)but-3-en-1-yl) 2-((tert-butoxycarbonyl)amino)-3-methylbutanethioate | 80 | 
